Assay results as given in PubChem BioAssay AID2073 (Sanford-Burnham Center for Chemical Genomics, 2009).
Among all 290,000 compounds or so, about 570 (0.2%) were called active. The shares of active, inactive and inconclusive entries below differ from those in the screen. No stated cut-off is given here; in the data, active means inhibition mostly above about 51% (no sharp cut-off); inconclusive means no clear call, values can overlap the other calls; inactive means mostly below about 53%.

Sequences of proteins named here, by UniProt entry; tags and fusion partners are left off.
UniProt Q00975, whole entry, looked up: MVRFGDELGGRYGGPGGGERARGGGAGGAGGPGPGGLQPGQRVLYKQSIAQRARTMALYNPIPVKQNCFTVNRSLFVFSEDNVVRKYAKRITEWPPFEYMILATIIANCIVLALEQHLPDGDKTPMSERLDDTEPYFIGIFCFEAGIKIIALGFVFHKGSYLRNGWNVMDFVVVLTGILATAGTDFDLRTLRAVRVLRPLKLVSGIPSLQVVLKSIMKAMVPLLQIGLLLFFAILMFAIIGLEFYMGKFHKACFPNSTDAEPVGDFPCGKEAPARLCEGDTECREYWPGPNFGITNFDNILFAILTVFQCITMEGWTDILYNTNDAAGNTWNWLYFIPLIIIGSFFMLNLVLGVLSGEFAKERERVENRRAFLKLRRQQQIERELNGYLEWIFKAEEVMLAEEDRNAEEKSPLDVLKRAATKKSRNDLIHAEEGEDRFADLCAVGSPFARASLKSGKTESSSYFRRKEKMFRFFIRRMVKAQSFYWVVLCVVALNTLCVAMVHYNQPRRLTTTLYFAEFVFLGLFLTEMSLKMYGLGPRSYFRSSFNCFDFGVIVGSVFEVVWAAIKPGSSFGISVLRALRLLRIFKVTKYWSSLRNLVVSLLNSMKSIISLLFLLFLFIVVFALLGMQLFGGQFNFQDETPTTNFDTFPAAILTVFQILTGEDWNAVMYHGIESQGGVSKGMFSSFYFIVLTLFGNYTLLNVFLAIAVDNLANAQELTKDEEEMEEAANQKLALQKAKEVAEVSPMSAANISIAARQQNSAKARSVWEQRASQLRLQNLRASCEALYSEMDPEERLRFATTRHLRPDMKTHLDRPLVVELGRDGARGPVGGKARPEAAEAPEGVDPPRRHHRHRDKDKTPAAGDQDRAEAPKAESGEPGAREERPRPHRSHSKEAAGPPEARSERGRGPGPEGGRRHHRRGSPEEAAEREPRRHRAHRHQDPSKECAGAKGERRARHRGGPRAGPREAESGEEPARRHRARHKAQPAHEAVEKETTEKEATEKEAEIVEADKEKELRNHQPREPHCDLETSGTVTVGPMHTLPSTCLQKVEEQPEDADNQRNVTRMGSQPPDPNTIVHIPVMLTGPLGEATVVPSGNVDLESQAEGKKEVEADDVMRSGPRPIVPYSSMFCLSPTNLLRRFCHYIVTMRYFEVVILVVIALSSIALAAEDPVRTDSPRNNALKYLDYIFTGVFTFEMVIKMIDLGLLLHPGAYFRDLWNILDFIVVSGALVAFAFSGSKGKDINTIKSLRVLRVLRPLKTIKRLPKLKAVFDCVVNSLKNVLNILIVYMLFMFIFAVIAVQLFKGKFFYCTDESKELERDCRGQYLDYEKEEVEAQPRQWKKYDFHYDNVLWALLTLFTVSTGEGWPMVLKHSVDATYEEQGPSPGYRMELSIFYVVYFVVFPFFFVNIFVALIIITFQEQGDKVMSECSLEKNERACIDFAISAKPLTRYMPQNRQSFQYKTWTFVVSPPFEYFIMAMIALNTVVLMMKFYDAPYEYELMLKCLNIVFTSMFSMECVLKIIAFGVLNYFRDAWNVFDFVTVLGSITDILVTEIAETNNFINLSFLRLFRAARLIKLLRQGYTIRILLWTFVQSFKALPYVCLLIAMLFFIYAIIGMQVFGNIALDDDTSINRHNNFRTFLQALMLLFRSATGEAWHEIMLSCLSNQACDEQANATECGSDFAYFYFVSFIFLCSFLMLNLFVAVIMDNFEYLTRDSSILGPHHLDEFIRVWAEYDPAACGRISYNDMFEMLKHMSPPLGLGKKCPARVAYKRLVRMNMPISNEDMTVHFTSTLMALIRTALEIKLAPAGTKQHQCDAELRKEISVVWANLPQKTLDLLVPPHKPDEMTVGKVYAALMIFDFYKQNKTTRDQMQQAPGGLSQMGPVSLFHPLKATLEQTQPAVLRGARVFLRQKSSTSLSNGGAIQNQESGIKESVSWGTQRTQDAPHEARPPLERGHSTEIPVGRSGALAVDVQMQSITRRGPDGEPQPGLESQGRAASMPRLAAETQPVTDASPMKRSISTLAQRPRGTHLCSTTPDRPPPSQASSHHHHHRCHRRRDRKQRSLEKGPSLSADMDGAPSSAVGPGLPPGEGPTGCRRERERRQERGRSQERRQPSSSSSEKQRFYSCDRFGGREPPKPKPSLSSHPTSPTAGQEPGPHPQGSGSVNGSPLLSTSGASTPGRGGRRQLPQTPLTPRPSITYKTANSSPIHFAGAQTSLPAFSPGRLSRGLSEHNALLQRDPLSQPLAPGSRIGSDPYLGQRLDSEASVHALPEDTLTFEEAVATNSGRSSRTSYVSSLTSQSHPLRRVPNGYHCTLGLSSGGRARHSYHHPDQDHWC

Each compound was assayed against Voltage-dependent N-type calcium channel subunit alpha-1B (Homo sapiens) (UniProt Q00975) (assay: disruptors of CaV2.2 binding to Mint1 – biochemical, HTRF (AID 2073)). Settings: HTRF protein-protein interaction, Mint1-CaV2.2; at 20 µM; active compounds read high.

Row | SMILES | inhibition
1 | COc1ccc(Nc2nc3[nH]c(=O)cc(O)c3s2)cc1 | inactive: 87.5%
2 | CCN(CC)c1ccc(/C=N/NC(=O)c2cccc(S(=O)(=O)Nc3ccccc3OC)c2)cc1 | inconclusive: 56.7%
3 | COc1ccc(NC2CCCN(C(=O)c3csc(C(C)C)n3)C2)cc1OC (stereo not given) | inactive: -10%
4 | O=C(CCl)Nc1nc(-c2ccco2)c(-c2ccco2)s1 | active: 66%
5 | COc1ccc(NC(=O)c2cc3c(CO)cnc(C)c3oc2=Nc2cccc(C)c2)c(OC)c1 | inactive: 10.6%
6 | CCCCCC(=O)N(O)C1CC(=O)N(c2ccccc2)C1=O (stereo not given) | inactive: 44.4%
7 | Cc1cc(-c2ccc(Cl)cc2)c(C#N)c(N)n1 | inconclusive: 52.2%
8 | CC(C)(C)C(=O)NC(=S)Nc1cc(C(=O)O)ccc1Cl | inconclusive: 63.9%
9 | C/C(=N/NC(=O)CCCOc1ccc(Cl)cc1Cl)c1ccc(C)o1 | inconclusive: 63.4%
10 | Brc1ccccc1C1=Nn2c(nnc2-c2ccco2)SC1 | inconclusive: 54.7%
11 | O=C(NCC1CCCO1)c1csc2c1CCCC2 (stereo not given) | inconclusive: 75.6%
12 | COC(=O)C(NC(C)=O)(Nc1ccccn1)C(F)(F)F (stereo not given) | inconclusive: 67.4%
13 | COCCNc1cc(C)nc2c3c(C)cc(C)nc3nn12 | inconclusive: 69.9%
14 | COc1cccc2c(=O)n(CC(=O)Nc3ccc(F)cc3F)ccc12 | inconclusive: 90.6%
15 | COc1ccc(CCNC(=O)C(CCC(N)=O)NS(=O)(=O)c2ccc(Cl)cc2)cc1OC (stereo not given) | inconclusive: 53.8%
16 | N#CCCn1cc(C(=O)O)c(-c2cccs2)n1 | inconclusive: 77.1%
17 | CCOC(=O)c1ccc(NC(=O)CSc2ccc(-c3cccnc3)nn2)cc1 | inconclusive: 52.5%
18 | COc1ccc(CN(CC(=O)NC(C)C)C(=O)CCC(=O)Nc2nccs2)cc1 | inactive: 9.7%
19 | COc1ccccc1CNC(=O)CN1C(=O)NC(C)(c2ccc(C)cc2)C1=O (stereo not given) | inconclusive: 56.8%
20 | Cc1c(O)c(CN2CCCCC2)cc2c3c(c(=O)oc12)CCC3 | inconclusive: 57%
21 | N#CC1=C(SCC(=O)NC23CC4CC(CC(C4)C2)C3)NC(=O)C(C#N)C12CCCCC2 (stereo not given) | inconclusive: 51.3%
22 | Cc1ccn2c(Nc3ccccc3)c(-c3ccccn3)nc2c1 | inactive: 21.1%
23 | N#CC(C#N)=C1NC(N)=C(C#N)C(c2ccccc2)=C1C#N | inconclusive: 66%
24 | COc1cc(C2CC(c3c(C)cc(C)[nH]c3=O)=NN2c2ccccc2F)cc(OC)c1OC (stereo not given) | inconclusive: 63.3%
25 | CC1=CC(C)(C)NC(=S)N1C(C)c1ccccc1 (stereo not given) | inconclusive: 64.8%

Reformatted tab-delimited: entries from further up
Row	SMILES	inhibition
6	CCCCCC(=O)N(O)C1CC(=O)N(c2ccccc2)C1=O (stereo not given)	inactive: 44.4%
7	Cc1cc(-c2ccc(Cl)cc2)c(C#N)c(N)n1	inconclusive: 52.2%
